Measurements reported in publication PMC13572491.
No constants are given. Whether binding was seen depends on the method and setting. For some of these results: In cells and extracts the contact can be indirect. Some binding calls cover weakened binding; strength is not graded here. For some of these results: Sequences can lack the tags named with a protein. Blank lines part the entries; values can stand above or below the binder they belong to.

Amino acid sequences for entries named in this document (tags omitted).
UniProt A7SLZ2: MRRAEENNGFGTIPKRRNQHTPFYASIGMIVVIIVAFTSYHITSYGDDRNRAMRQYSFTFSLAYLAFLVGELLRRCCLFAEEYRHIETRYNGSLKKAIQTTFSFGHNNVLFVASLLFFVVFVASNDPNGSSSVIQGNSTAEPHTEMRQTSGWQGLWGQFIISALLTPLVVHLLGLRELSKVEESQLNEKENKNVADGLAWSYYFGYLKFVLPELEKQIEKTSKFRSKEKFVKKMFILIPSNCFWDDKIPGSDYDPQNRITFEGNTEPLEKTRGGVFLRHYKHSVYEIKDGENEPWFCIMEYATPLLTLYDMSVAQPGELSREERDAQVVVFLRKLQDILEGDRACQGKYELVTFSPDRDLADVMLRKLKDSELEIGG

Legend:
[1] = target: T1, HA-DrSTING stably expressed in MEF Sting-/- (MEF^DrSTING) (Danio rerio) (UniProt E7F4N7); experiment: native gel or EMSA; native electrophoresis (NativePAGE 3-12% Bis-Tris, lysis in 25 mM NaCl, 20 mM HEPES pH 7.0, 10% glycerol, 1% DDM) and Western blot of lysates of MEF lines expressing STING homologs, 1 h or 3 h after 2’3’-cGAMP
T1 sequence: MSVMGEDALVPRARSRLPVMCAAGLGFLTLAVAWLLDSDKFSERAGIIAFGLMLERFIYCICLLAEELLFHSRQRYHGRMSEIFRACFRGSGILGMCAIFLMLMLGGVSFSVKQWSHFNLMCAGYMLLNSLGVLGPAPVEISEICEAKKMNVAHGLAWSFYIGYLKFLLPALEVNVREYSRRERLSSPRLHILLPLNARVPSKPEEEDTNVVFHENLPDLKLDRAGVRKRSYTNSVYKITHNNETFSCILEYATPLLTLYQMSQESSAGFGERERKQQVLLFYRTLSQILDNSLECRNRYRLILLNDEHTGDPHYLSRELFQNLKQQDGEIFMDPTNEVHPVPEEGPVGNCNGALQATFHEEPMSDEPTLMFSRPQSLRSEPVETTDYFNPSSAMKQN

[2] = target: HA-NvSTING (STING homolog of Nematostella vectensis), expressed in HEK 293T (Nematostella vectensis) (UniProt A7SLZ2); experiment: co-IP; HA-immunoprecipitation (anti-HA agarose) on whole-cell extracts of HEK 293T transiently co-expressing HA-STING and FADS-FLAG; TENTG-150 buffer, 4 h at 4 °C; HA peptide elution; Western blot
[3] = target: T2, HA-MmSTING (STING of Mus musculus), expressed in HEK 293T (Mus musculus) (UniProt Q3TBT3); experiment: as above
T2 sequence: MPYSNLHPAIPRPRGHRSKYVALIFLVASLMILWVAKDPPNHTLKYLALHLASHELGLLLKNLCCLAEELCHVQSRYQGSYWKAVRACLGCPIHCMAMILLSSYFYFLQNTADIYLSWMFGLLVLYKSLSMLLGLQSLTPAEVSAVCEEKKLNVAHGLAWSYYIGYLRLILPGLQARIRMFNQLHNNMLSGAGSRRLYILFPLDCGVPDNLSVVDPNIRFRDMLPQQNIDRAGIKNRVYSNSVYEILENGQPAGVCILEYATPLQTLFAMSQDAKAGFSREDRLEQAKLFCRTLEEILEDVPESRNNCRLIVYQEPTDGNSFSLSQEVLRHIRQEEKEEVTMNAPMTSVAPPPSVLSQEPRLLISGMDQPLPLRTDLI

[4] = target: T3, HA-DrSTING (STING of Danio rerio), expressed in HEK 293T (Danio rerio) (UniProt E7F4N7); experiment: as above
T3 sequence: T1 sequence

[5] = target: T1, HA-DrSTING stably expressed in MEF Sting-/- (MEF^DrSTING) (Danio rerio); experiment: co-IP; HA-immunoprecipitation on whole-cell extracts of MEF Sting-/- stably expressing HA-STING homologs; endogenous FADS2 detected by Western blot; TENTG-150 buffer, HA peptide elution
[6] = target: T4, HA-MmSTING stably expressed in MEF Sting-/- (MEF^MmSting) (Mus musculus) (UniProt Q3TBT3); experiment: as above
T4 sequence: T2 sequence

[7] = target: HA-NvSTING stably expressed in MEF Sting-/- (MEF^NvSTING) (Nematostella vectensis) (UniProt A7SLZ2); experiment: as above

binding [1]: binds
B1: HA-DrSTING stably expressed in MEF Sting-/- (MEF^DrSTING) (protein, UniProt E7F4N7 1-398)
chain: T1 sequence

binding [2]: binds
binding [3]: binds
binding [4]: binds
B2: MmFADS2-FLAG (fatty acid desaturase 2 of Mus musculus) (enzyme, UniProt Q9Z0R9 1-444)
chain: MGKGGNQGEGSTERQAPMPTFRWEEIQKHNLRTDRWLVIDRKVYNVTKWSQRHPGGHRVIGHYSGEDATDAFRAFHLDLDFVGKFLKPLLIGELAPEEPSLDRGKSSQITEDFRALKKTAEDMNLFKTNHLFFFLLLSHIIVMESLAWFILSYFGTGWIPTLVTAFVLATSQAQAGWLQHDYGHLSVYKKSIWNHVVHKFVIGHLKGASANWWNHRHFQHHAKPNIFHKDPDIKSLHVFVLGEWQPLEYGKKKLKYLPYNHQHEYFFLIGPPLLIPMYFQYQIIMTMISRRDWVDLAWAISYYMRFFYTYIPFYGILGALVFLNFIRFLESHWFVWVTQMNHLVMEIDLDHYRDWFSSQLAATCNVEQSFFNDWFSGHLNFQIEHHLFPTMPRHNLHKIAPLVKSLCAKHGIEYQEKPLLRALIDIVSSLKKSGELWLDAYLHK

binding [5]: binds
binding [6]: binds
binding [7]: binds
B3: endogenous MmFADS2 (fatty acid desaturase 2) of mouse embryonic fibroblasts (enzyme, UniProt Q9Z0R9 1-444)
chain: B2 chain
